{"sequences": {"note": "Amino acid sequences for entries named in this document (tags omitted).", "UniProt P42224": "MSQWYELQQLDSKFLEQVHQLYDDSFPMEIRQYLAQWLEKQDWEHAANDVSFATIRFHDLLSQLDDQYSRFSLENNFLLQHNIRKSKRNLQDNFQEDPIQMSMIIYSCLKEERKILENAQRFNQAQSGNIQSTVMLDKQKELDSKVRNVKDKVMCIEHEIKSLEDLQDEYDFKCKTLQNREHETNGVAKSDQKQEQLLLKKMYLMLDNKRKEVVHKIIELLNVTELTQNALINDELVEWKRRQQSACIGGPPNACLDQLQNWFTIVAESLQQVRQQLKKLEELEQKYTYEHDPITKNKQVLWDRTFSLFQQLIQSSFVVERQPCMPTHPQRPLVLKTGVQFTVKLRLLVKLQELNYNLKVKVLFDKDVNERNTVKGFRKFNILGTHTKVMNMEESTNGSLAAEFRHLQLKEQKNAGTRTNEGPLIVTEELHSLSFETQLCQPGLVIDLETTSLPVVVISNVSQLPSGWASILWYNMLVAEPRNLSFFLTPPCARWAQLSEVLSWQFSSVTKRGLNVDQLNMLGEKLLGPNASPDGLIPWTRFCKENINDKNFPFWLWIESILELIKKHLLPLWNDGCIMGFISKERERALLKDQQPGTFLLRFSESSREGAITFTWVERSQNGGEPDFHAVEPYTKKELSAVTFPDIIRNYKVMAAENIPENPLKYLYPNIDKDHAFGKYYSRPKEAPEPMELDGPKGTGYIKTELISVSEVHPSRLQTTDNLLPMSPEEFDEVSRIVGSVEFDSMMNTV"}, "source": "paper PMC10581003", "target": "T1, KDM7A (lysine demethylase 7A) (human (endogenous in HepG2)) (UniProt Q6ZMT4)", "T1 sequence": "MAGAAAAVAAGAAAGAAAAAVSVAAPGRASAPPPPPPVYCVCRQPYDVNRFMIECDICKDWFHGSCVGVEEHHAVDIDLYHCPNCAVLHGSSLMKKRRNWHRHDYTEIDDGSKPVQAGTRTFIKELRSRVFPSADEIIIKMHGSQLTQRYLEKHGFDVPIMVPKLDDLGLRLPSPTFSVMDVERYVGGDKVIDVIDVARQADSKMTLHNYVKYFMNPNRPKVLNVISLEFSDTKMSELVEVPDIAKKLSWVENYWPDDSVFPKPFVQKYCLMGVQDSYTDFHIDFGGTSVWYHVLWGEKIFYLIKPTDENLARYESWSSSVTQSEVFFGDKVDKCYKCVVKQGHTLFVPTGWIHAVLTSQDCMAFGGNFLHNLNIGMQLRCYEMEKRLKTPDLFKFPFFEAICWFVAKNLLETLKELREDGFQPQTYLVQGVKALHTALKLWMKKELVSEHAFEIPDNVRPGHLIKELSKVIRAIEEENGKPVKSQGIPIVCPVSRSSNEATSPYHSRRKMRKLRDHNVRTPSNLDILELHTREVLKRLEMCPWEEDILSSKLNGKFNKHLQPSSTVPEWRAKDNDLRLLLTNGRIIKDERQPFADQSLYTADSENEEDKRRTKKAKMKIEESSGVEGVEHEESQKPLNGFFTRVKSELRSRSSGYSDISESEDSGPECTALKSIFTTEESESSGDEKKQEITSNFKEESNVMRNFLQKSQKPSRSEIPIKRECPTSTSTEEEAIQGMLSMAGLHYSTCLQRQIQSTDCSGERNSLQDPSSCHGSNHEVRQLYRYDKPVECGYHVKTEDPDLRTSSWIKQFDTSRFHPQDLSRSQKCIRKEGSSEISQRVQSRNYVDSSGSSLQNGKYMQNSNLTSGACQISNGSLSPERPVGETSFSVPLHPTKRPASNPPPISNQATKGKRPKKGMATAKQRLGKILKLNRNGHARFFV", "assay": "co-IP; HepG2 cells treated with IFN-γ (50 ng/mL), immunoprecipitation and immunoblotting with the indicated antibodies; endogenous proteins; procedure cited from earlier work", "note": "Results are given in words; binding and its absence hold for the method and conditions named. Binding seen in cells or lysates may run through a third protein. Some results given as binding are weak or reduced against the parent protein; the word gives no strength.", "data": [{"substance": "STAT1 (from UniProt P42224 1-750)", "values": [{"measurement": "binding", "value": "binds"}]}]}
